One assay deals with T1, HA-Siah2 (UniProt O43255).
T1 sequence: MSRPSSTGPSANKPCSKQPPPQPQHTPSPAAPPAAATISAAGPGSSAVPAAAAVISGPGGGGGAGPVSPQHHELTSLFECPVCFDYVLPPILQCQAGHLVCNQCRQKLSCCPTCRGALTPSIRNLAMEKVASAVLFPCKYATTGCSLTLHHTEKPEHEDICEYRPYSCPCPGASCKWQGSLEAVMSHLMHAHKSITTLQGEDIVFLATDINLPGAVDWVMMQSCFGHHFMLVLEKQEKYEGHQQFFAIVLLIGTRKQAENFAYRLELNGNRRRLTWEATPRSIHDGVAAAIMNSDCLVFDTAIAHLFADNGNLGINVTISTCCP
Put plainly: co-IP; CCA cells transfected with HA-Siah2 and Flag-PD-L1 for 36 h; immunoprecipitation with anti-HA, analysed by immunoblotting.

Sequences of proteins named here, by UniProt entry; tags and fusion partners are left off. Residues count along the entry.
UniProt Q9NZQ7, residues 19-290: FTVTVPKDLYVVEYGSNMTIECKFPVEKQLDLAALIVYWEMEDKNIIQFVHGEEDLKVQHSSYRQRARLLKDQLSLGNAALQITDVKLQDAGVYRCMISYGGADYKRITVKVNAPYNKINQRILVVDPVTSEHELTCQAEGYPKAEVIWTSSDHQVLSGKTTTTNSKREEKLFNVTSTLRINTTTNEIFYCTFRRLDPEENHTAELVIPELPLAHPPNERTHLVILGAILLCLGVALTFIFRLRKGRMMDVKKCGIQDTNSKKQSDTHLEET

For assay [1], the target named is T2, seven in absentia homolog 2 (Siah2), endogenous (human (endogenous in CCA cells)) (UniProt O43255).
T2 sequence: T1 sequence
Put plainly: co-IP; immunoprecipitation with anti-Siah2 from CCA cells, analysed by immunoblotting; the text calls it endogenous. A general note: Immunoblotting shows a protein as a band on a membrane.

The source of these data is PMC8828655.

These are yes or no findings as the source states them, for the method shown. In cells and extracts the contact can be indirect. Some binding calls cover weakened binding; strength is not graded here. For some assays here: Where a sequence is shown, tags or fusion partners need not be part of it.

In the case of Flag-PD-L1 (from UniProt Q9NZQ7 19-290), in the assay with HA-Siah2, the binding entry is given as “binds”.

As to “Programmed death ligand 1 (PD-L1), endogenous (from UniProt Q9NZQ7 19-290)”, in assay [1], the binding entry is on record as “binds”.
